From PMC4279437
These are yes or no findings as the source states them, for the method shown. For some of these results: Binding seen in cells or lysates may run through a third protein. Some entries that bind do so weakly or less than the wild type. For some of these results: Sequences can lack the tags named with a protein. One block for each binder: values may come before it.

Chains of the proteins cited; added tags and fusions are not shown. Lines headed by an entry give the natural chain unless they say otherwise; changes in a name come on top. Residues count along the entry.
UniProt Q6R327: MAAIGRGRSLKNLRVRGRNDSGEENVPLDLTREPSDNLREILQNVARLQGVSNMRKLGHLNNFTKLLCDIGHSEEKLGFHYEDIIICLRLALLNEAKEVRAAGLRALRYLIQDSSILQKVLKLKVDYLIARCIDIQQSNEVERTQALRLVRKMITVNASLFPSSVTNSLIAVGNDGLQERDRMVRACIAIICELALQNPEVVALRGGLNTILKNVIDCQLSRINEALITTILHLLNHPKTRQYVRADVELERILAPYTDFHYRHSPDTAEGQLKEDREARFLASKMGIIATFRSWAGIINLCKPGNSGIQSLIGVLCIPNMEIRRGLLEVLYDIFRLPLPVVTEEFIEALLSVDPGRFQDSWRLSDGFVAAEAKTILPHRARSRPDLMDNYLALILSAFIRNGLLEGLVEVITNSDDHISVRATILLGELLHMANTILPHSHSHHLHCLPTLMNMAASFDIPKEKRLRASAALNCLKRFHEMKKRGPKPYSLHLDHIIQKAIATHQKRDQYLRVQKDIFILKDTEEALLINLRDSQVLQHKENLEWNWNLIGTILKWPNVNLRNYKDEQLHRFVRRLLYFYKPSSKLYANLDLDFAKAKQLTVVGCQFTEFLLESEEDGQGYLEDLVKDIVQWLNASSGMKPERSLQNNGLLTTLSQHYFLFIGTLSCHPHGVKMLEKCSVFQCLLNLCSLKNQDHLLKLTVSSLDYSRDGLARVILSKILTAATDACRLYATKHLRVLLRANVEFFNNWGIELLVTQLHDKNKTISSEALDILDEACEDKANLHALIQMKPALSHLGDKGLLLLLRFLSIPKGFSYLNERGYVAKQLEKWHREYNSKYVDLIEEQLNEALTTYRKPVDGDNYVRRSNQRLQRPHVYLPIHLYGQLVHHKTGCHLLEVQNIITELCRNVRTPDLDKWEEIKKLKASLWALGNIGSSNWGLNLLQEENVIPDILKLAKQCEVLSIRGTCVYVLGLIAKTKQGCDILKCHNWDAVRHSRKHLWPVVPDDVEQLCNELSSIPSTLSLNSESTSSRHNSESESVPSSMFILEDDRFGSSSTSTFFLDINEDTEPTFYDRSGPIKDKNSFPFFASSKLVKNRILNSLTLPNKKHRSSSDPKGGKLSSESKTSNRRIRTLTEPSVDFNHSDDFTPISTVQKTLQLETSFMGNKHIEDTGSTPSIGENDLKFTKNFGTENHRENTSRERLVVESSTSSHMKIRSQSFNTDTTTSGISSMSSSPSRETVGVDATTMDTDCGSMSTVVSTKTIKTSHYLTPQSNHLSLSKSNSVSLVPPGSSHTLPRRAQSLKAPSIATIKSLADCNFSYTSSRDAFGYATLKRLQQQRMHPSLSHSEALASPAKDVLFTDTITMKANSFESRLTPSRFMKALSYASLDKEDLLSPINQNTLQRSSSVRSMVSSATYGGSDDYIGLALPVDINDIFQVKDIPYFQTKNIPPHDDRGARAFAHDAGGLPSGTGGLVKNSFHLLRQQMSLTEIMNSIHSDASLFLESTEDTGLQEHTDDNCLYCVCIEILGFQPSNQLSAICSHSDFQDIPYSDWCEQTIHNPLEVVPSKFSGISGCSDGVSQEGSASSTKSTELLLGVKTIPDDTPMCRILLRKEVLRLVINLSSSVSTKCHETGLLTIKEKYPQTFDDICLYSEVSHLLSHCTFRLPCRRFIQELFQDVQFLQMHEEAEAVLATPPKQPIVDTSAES
Gal4DBD fusion of the interacting domain of Rictor (a.a. 50-101): residues 50-101 of Q6R327
UniProt Q8N122: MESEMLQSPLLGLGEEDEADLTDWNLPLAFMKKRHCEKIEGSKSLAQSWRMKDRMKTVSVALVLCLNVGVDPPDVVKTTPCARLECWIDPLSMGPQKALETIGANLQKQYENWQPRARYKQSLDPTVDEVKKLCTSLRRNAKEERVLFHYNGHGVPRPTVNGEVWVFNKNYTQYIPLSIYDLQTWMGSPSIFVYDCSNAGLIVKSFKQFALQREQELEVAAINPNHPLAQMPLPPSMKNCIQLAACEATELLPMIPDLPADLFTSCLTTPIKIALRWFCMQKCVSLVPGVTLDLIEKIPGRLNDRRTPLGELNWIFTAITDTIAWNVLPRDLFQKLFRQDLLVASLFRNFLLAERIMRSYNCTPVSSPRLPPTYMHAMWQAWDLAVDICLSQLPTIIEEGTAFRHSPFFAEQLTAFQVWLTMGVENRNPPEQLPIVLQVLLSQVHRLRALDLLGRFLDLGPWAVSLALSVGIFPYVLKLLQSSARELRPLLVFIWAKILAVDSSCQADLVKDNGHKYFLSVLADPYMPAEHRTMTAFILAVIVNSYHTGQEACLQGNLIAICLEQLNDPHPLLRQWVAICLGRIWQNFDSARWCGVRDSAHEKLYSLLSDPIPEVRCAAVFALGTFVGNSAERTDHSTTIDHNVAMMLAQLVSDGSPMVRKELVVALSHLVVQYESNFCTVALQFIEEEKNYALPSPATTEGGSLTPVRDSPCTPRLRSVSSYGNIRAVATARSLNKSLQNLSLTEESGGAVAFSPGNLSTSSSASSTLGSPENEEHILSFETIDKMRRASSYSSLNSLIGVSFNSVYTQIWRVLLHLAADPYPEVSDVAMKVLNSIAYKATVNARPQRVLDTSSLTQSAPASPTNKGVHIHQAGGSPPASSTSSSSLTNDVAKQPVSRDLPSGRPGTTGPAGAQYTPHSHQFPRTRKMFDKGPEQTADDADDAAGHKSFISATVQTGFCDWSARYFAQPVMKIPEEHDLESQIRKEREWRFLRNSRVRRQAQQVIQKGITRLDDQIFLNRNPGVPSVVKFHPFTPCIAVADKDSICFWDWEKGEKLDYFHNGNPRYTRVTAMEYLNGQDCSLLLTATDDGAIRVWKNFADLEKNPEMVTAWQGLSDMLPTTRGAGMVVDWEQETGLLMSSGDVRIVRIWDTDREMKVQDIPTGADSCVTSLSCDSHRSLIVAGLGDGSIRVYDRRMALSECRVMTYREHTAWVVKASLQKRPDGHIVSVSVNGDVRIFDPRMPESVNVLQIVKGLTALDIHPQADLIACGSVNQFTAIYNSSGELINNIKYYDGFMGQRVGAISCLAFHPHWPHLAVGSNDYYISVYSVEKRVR

Tests used:
[1] = target: Gal4DBD fusion of the interacting domain of Rictor (a.a. 50-101) (human) (UniProt Q6R327); assay: two-hybrid; defined Gal4DBD-Rictor and Gal4AD-DUSP10 constructs (full length, deletion mutants, interacting domains alone) introduced into AH109; growth on selective media (HIS3 reporter) and liquid β-galactosidase assays
[2] = target: GAL4DBD-Rictor fusion (full-length human Rictor) (human) (UniProt Q6R327); assay: as above
[3] = target: endogenous Rictor (U87 cells) (human (endogenous in U87)) (UniProt Q6R327); assay: co-IP; endogenous Rictor, Raptor or DUSP10 immunoprecipitated from U87 cells, Western analysis of precipitates; controls: beads without antibody, control IgG
[4] = target: endogenous Raptor (U87 cells) (human (endogenous in U87)) (UniProt Q8N122); assay: as above

binding [1]: binds
Binder: TTTTAIGTSTTCPANQMVNNNENTGSLSPSSGVGSPVSGTPKQLAS (domain or fragment, UniProt Q9Y6W6-1 101-146) [Gal4AD fusion of the interacting domain of DUSP10 (a.a. 101-146)]

binding [2]: binds
B1: full-length DUSP10-AD fusion (protein, UniProt Q9Y6W6-1 1-482)
chain: MPPSPLDDRVVVALSRPVRPQDLNLCLDSSYLGSANPGSNSHPPVIATTVVSLKAANLTYMPSSSGSARSLNCGCSSASCCTVATYDKDNQAQTQAIAAGTTTTAIGTSTTCPANQMVNNNENTGSLSPSSGVGSPVSGTPKQLASIKIIYPNDLAKKMTKCSKSHLPSQGPVIIDCRPFMEYNKSHIQGAVHINCADKISRRRLQQGKITVLDLISCREGKDSFKRIFSKEIIVYDENTNEPSRVMPSQPLHIVLESLKREGKEPLVLKGGLSSFKQNHENLCDNSLQLQECREVGGGASAASSLLPQPIPTTPDIENAELTPILPFLFLGNEQDAQDLDTMQRLNIGYVINVTTHLPLYHYEKGLFNYKRLPATDSNKQNLRQYFEEAFEFIEEAHQCGKGLLIHCQAGVSRSATIVIAYLMKHTRMTMTDAYKFVKGKRPIISPNLNFMGQLLEFEEDLNNGVTPRILTPKLMGVETVV

binding [3]: binds
binding [4]: no binding
B2: endogenous DUSP10 (U87 cells) (protein, UniProt Q9Y6W6-1 1-482)
chain: MPPSPLDDRVVVALSRPVRPQDLNLCLDSSYLGSANPGSNSHPPVIATTVVSLKAANLTYMPSSSGSARSLNCGCSSASCCTVATYDKDNQAQTQAIAAGTTTTAIGTSTTCPANQMVNNNENTGSLSPSSGVGSPVSGTPKQLASIKIIYPNDLAKKMTKCSKSHLPSQGPVIIDCRPFMEYNKSHIQGAVHINCADKISRRRLQQGKITVLDLISCREGKDSFKRIFSKEIIVYDENTNEPSRVMPSQPLHIVLESLKREGKEPLVLKGGLSSFKQNHENLCDNSLQLQECREVGGGASAASSLLPQPIPTTPDIENAELTPILPFLFLGNEQDAQDLDTMQRLNIGYVINVTTHLPLYHYEKGLFNYKRLPATDSNKQNLRQYFEEAFEFIEEAHQCGKGLLIHCQAGVSRSATIVIAYLMKHTRMTMTDAYKFVKGKRPIISPNLNFMGQLLEFEEDLNNGVTPRILTPKLMGVETVV
